Experimental data as given in patent US20200405659A1, “COMPOSITION CONTAINING 2,3-BUTANEDIOL AS ACTIVE INGREDIENT” (GS CALTEX CORPORATION, priority 2018, published 2020).

Tested on: CCD-986SK cells
Experiment: Protein content of CCD-986SK cell dissolution material (BSA protein assay reagent kit)
Assay type: cell-based
Settings: 48 hours

Compound	Protein (0.50 wt % in serum-free medium) [µg/mL]	Protein (0.05 wt % in serum-free medium) [µg/mL]	Protein (0.10 wt % in serum-free medium) [µg/mL]	Protein (1.00 wt % in serum-free medium) [µg/mL]
CC(O)CCO (stereo not shown) [1,3-butanediol]	203.25	–	–	–
OCCCO [1,3-propanediol]	207.90	–	–	–
C[C@@H](O)[C@@H](C)O [2R,3R-butanediol]	186.85	201.41	199.74	168.73
C[C@H](O)[C@@H](C)O [2R,3S-butanediol]	187.33	199.83	198.54	165.90
